In PubChem BioAssay AID330 (DTP/NCI, 2004):
The list shows only some results of the screen, not a fair sample: it gathers tests that were run many times, whatever their T/C, doses with no T/C, and many T/C values between a quarter and a half above the control. Other doses and runs of a compound stand elsewhere. T/C: endpoint of the treated group in % of that of the vehicle group. Some entries give survivors of the animals treated and no T/C: the source files T/C as zero there, which appears to mark a toxic dose or a test without result, not a measured value. Some survivor counts are full or nearly so, which does not show that the dose was tolerated: survival well below the control is almost never listed, so the zero probably covers shortened survival too. Survivors were counted at the toxicity check, usually on the fifth day, unless a day is given; later deaths do not show. Schedule codes are those of the source, read here as Q, the interval in days (D) or hours (H), X, the number of doses. Brackets with × say how often a value occurs here. For survival time, the PubChem record calls one and a half times the control and up active, and a quarter to a half above the control has no call in these data; cut-offs in other NCI protocols can differ. Some entries were tested several times; the values are given in rising order.

System: P388 leukemia ip, CD2F1 mice, survival T/C
Assay: NCI In Vivo Anticancer Drug Screen. Data for tumor model P388 Leukemia (intraperitoneal) in CD2F1 (CDF1) mice
Settings: T/C endpoint: median survival time, higher T/C = longer survival
[1] = dose: 100.0 mg/kg/injection, schedule: Q01DX009 (ip), vehicle: Klucel (hydroxypropylcellulose) (HPC)
[2] = dose: 240.0 mg/kg/injection, schedule: Q01DX005 (ip), vehicle: saline with Tween-80

N#Cc1c2ccccc2cc[n+]1Cc1ccc2c(c1)OCO2
survivor count (dose: 25.0 mg/kg/injection, schedule: Q04DX002 (ip), vehicle: Klucel (hydroxypropylcellulose) (HPC)): 4 of 6
survivor count (dose: 50.0 mg/kg/injection, schedule: Q04DX002 (ip), vehicle: Klucel (hydroxypropylcellulose) (HPC)): 0 of 6
survivor count (dose: 100.0 mg/kg/injection, schedule: Q04DX002 (ip), vehicle: Klucel (hydroxypropylcellulose) (HPC)): 0 of 6
survivor count (dose: 200.0 mg/kg/injection, schedule: Q04DX002 (ip), vehicle: Klucel (hydroxypropylcellulose) (HPC)): 0 of 6
survivor count (dose: 400.0 mg/kg/injection, schedule: Q04DX002 (ip), vehicle: Klucel (hydroxypropylcellulose) (HPC)): 0 of 6

CC(C)[Si]1(C(C)C)N[Si](C(C)C)(C(C)C)N1
survivor count (dose: 60.0 mg/kg/injection, schedule: Q01DX005 (ip), vehicle: saline): 5 of 6

O=C1[C@@H]2C3C=CC([C@H]4C(=O)N(CO)C(=O)[C@@H]34)[C@@H]2C(=O)N1CO
T/C (dose: 25.0 mg/kg/injection, schedule: Q01DX009 (ip), vehicle: Klucel (hydroxypropylcellulose) (HPC)): 132 % of control
T/C (dose: 50.0 mg/kg/injection, schedule: Q01DX009 (ip), vehicle: Klucel (hydroxypropylcellulose) (HPC)): 127 and 140 % of control
T/C [1]: 137 and 144 % of control

O=C1COC(c2ccccc2O)=NN1CCCN1CCCC1
survivor count (dose: 200.0 mg/kg/injection, schedule: Q01DX001 (ip), vehicle: saline): 0 of 6

CSC(=S)N/N=C(\C)c1ccc[nH]1
survivor count (dose: 200.0 mg/kg/injection, schedule: Q01DX005 (ip), vehicle: Klucel (hydroxypropylcellulose) (HPC)): 6 of 6

Clc1cnc2n[se]nc2c1
survivor count (dose: 200.0 mg/kg/injection, schedule: Q04DX002 (ip), vehicle: saline): 1 of 6
survivor count (dose: 400.0 mg/kg/injection, schedule: Q04DX002 (ip), vehicle: saline): 0 of 6

CCn1c2ccc(N)cc2c2c3ncc4cccn4c3ccc21
survivor count [2]: 6 of 6

COc1cccc2c1C(=O)c1c(O)c3c(c(O)c1C2=O)C[C@@](O)(/C(C)=N/NC(=O)c1ccc(Cl)c(Cl)c1)C[C@@H]3OC1CC(N)C(O)C(C)O1 (stereo partly specified)
T/C (dose: 0.25 mg/kg/injection, schedule: Q01DX009 (ip), vehicle: water, evaluated on day 30): 137 % of control
T/C (dose: 0.25 mg/kg/injection, schedule: Q01DX009 (ip), vehicle: water, evaluated on day 45): 132 % of control
T/C (dose: 0.5 mg/kg/injection, schedule: Q01DX009 (ip), vehicle: water): 138 % of control
T/C (dose: 2.5 mg/kg/injection, schedule: Q01DX001 (ip), vehicle: water): 138 % of control
T/C (dose: 4.0 mg/kg/injection, schedule: Q01DX009 (ip), vehicle: water): 132 % of control
survivor count (dose: 8.0 mg/kg/injection, schedule: Q01DX009 (ip), vehicle: water): 6 of 6 (2×)
survivor count (dose: 16.0 mg/kg/injection, schedule: Q01DX009 (ip), vehicle: water): 4 of 6
survivor count (dose: 40.0 mg/kg/injection, schedule: Q01DX001 (ip), vehicle: water): 6 of 6
survivor count (dose: 80.0 mg/kg/injection, schedule: Q01DX001 (ip), vehicle: water): 0 of 6

COSc1ccc(OC)cc1
survivor count (dose: 400.0 mg/kg/injection, schedule: Q04DX003 (ip), vehicle: saline): 4 of 6

CN(C)CCOc1ccc2c(c1)C1=NN(c3ccccc3)C(=O)CC1CO2 (stereo unspecified)
survivor count [2]: 0 of 6

CCn1c(=O)c2[nH]c(C(F)(F)F)nc2n(CC)c1=O
survivor count [1]: 2 of 6

CCB1OCC(C2OC(O)C3OB(CC)OC32)O1 (stereo unspecified)
survivor count (dose: 100.0 mg/kg/injection, schedule: Q01DX005 (ip), vehicle: saline with Tween-80): 6 of 6

N#Cc1ccc(NC(=O)Nc2cccc(C#N)c2)cc1
survivor count (dose: 120.0 mg/kg/injection, schedule: Q01DX005 (ip), vehicle: saline with Tween-80): 6 of 6

CN1CCC2(CC1)N=C1CCN(C)CC1S2 (stereo unspecified)
survivor count (dose: 400.0 mg/kg/injection, schedule: Q01DX001 (ip), vehicle: saline with Tween-80): 0 of 6

CCOP(=O)(O)CC(=O)NC(CC(=O)O)C(=O)O (stereo unspecified)
T/C (dose: 200.0 mg/kg/injection, schedule: Q01DX009 (ip), vehicle: Klucel (hydroxypropylcellulose) (HPC)): 125 % of control

C1CCN2COCC2C1 (stereo unspecified)
T/C (dose: 50.0 mg/kg/injection, schedule: Q01DX005 (ip), vehicle: saline): 127 and 131 % of control
survivor count (dose: 200.0 mg/kg/injection, schedule: Q01DX005 (ip), vehicle: saline): 0 of 6

Ic1ccccc1C[N+]12CN3CN(CN(C3)C1)C2
survivor count (dose: 400.0 mg/kg/injection, schedule: Q04DX003 (ip), vehicle: saline with Tween-80): 3 of 6

CC(C)=CCC(OC(=O)CC(C)(C)O)C1=CC(=O)c2c(O)ccc(O)c2C1=O (stereo unspecified)
survivor count (dose: 75.0 mg/kg/injection, schedule: Q01DX005 (ip), vehicle: Klucel (hydroxypropylcellulose) (HPC)): 1 of 6
survivor count (dose: 150.0 mg/kg/injection, schedule: Q01DX005 (ip), vehicle: Klucel (hydroxypropylcellulose) (HPC)): 0 of 6

O=C1NC(c2ccccc2)C(c2ccccc2)(c2ccccc2)O1 (stereo unspecified)
survivor count (dose: 200.0 mg/kg/injection, schedule: Q01DX009 (ip), vehicle: saline with Tween-80): 0 of 6
